Experimental data taken from article PMC10079682.
Results are given in words; binding and its absence hold for the method and conditions named. For some assays here: Binding seen in cells or lysates may run through a third protein. Some results given as binding are weak or reduced against the parent protein; the word gives no strength. For some assays here: Tags and fused reporters may be left off the sequences shown. One block for each molecule: values may come before it.

Chains of the proteins cited; added tags and fusions are not shown. Residues count along the entry.
UniProt Q9NZQ7, residues 19-290: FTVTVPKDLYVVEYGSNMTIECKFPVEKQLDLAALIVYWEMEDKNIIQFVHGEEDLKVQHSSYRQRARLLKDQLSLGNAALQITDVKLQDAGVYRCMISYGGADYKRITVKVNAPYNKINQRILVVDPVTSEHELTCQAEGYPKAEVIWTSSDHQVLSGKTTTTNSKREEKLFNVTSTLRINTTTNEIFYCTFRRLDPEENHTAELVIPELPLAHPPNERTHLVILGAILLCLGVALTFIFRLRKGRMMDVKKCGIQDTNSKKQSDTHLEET
UniProt Q9Y4B6: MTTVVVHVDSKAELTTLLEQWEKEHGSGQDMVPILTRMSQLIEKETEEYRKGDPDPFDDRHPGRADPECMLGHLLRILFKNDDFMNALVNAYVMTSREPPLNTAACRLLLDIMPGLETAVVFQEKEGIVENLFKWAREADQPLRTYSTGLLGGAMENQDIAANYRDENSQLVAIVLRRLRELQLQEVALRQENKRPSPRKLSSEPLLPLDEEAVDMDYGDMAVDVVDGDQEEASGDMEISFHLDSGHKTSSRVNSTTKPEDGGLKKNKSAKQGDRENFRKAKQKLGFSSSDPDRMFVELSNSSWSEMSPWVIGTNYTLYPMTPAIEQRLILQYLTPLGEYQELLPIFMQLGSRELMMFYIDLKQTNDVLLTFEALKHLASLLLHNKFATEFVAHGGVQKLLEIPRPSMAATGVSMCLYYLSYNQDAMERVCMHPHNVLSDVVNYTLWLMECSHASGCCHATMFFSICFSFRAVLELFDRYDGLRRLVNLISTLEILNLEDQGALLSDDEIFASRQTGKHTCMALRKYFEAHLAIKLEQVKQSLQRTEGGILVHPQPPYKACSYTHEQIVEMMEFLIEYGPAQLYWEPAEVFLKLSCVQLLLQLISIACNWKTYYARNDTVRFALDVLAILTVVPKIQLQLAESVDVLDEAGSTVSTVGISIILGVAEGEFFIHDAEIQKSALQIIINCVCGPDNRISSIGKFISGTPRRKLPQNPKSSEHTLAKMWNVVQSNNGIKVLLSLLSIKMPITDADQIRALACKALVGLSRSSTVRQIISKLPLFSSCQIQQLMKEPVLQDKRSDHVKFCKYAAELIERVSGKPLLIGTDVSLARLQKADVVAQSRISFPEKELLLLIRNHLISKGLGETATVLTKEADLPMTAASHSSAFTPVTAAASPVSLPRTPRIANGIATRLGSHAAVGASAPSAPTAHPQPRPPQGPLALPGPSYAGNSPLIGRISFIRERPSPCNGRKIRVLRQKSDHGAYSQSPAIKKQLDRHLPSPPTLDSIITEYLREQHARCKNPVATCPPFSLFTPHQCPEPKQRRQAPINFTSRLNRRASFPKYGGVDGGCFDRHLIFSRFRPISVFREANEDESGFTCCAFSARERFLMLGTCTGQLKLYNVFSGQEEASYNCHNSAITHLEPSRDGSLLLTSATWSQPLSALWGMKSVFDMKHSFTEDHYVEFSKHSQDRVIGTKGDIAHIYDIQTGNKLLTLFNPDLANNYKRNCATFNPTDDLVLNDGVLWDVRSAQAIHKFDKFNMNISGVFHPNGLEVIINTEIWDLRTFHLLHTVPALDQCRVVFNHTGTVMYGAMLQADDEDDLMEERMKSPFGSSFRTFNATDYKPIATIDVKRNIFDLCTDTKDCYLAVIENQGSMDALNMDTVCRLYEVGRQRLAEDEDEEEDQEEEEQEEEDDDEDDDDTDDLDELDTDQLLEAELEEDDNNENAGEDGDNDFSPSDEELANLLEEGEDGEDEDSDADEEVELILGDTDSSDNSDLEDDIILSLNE

How the values were obtained:
SFB-tagged-USP2 protein = biological target: T1, SFB-tagged-USP2 protein (UniProt O75604); experiment: co-IP; protein complexes of SFB-tagged USP2 purified from 293 cells; western blot (Supplementary Fig. 8d)
T1 sequence: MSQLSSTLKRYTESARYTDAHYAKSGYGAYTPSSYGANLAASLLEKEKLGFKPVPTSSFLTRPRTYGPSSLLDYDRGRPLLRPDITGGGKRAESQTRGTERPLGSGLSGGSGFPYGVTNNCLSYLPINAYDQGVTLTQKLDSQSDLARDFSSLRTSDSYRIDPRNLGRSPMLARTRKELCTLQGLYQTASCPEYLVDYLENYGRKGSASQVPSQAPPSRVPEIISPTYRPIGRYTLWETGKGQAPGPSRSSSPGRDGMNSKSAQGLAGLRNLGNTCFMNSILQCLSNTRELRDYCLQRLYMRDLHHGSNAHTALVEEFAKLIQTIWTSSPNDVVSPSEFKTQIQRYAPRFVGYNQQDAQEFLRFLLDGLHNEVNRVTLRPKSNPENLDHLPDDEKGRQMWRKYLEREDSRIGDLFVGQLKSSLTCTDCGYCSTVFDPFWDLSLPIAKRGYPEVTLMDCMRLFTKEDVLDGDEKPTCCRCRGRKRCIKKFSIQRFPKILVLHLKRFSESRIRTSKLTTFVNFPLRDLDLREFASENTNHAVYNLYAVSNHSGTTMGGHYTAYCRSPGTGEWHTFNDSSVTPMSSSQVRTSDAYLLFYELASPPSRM

[1] = biological target: T2, endogenous USP2 (human (endogenous in A375)) (UniProt O75604); experiment: co-IP; endogenous proteins, A375 cell extracts; IP of endogenous USP2 or control IgG; western blot for VPRBP
T2 sequence: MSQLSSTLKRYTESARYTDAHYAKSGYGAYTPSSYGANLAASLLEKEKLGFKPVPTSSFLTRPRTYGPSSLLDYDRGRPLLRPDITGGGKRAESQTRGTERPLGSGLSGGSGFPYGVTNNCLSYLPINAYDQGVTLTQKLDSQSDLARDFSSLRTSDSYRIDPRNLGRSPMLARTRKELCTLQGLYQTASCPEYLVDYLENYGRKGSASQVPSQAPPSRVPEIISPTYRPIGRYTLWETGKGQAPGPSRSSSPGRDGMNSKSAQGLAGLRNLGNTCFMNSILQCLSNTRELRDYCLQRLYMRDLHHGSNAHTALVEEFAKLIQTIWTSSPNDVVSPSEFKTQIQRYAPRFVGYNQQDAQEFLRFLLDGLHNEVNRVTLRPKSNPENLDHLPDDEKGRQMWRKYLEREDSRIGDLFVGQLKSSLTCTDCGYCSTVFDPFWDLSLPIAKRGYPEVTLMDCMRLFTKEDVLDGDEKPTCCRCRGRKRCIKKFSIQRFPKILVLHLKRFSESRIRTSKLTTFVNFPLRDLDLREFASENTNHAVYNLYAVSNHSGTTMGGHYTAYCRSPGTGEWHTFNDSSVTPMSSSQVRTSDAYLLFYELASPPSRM

[2] = biological target: endogenous PD-L1 (human (endogenous in H1299, MDA-MB-231)) (UniProt Q9NZQ7); experiment: co-IP; endogenous proteins from H1299 cells; IP with a specific antibody or control IgG; western blot
[3] = biological target: T3, endogenous IRF1 (human (endogenous in H1299, A549, HEK293)) (UniProt P10914); experiment: as above
T3 sequence: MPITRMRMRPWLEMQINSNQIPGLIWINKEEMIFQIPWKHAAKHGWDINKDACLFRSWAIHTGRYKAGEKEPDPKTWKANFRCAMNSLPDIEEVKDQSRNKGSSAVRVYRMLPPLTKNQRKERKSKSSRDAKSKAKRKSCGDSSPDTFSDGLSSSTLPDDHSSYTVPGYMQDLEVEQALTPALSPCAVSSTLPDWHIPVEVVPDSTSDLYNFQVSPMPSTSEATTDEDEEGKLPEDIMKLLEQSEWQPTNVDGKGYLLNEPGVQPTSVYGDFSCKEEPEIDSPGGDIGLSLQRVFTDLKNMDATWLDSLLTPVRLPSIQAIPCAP

[4] = biological target: C-terminal tagged PD-L1 (PD-L1-SFB) (human) (UniProt Q9NZQ7); experiment: co-IP; H1299 cells transfected with both constructs; whole cell extracts in BC100 buffer; SFB-tagged bait on streptavidin beads overnight at 4 °C; western blot
SFB-tagged IRF1 = biological target: T4, SFB-tagged IRF1 (UniProt P10914); experiment: as above
T4 sequence: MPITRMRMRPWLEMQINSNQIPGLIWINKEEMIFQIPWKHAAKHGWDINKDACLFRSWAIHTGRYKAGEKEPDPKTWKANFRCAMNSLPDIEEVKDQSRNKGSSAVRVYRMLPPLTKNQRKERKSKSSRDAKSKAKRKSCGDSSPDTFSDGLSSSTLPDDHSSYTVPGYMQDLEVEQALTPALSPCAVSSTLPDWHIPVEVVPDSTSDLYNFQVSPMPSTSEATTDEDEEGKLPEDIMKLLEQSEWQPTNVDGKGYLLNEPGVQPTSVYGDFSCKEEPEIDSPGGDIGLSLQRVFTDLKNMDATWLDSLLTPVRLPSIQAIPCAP

FLAG-HA-tagged USP2 = biological target: T5, FLAG-HA-tagged USP2 (UniProt O75604); experiment: co-IP; H1299 cells transfected with Myc-VPRBP alone or with FH-USP2; IP of FH-USP2 with HA beads; western blot
T5 sequence: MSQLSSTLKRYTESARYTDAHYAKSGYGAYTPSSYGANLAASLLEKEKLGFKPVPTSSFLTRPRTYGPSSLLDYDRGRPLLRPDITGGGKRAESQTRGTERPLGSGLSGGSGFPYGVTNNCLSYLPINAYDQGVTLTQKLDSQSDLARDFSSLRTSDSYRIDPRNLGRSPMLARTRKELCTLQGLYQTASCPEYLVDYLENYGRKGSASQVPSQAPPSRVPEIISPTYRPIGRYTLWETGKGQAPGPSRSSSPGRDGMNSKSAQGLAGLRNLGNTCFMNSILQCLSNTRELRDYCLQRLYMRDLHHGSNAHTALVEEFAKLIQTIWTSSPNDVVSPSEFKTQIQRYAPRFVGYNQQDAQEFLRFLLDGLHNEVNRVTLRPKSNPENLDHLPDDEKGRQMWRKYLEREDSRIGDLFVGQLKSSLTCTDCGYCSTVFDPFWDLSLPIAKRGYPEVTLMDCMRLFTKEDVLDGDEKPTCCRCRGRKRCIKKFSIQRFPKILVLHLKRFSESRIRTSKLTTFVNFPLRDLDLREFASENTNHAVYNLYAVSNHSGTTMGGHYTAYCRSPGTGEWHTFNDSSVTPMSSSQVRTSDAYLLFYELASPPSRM

[5] = biological target: endogenous VPRBP (human (endogenous in H1299, A549, HEK293, MDA-MB-231, A375)) (UniProt Q9Y4B6); experiment: co-IP; endogenous proteins, MDA-MB-231 cells (Fig. 3d, lower panel, by the legend); IP with a specific antibody or control IgG; western blot
[6] = biological target: T6, purified GST-USP2 fusion protein (UniProt O75604); experiment: pull-down; GST or GST-fused protein (E. coli) and purified F-VPRBP protein incubated with GST resin overnight at 4 °C; 5 washes with BC100 buffer; western blot; both purified
T6 sequence: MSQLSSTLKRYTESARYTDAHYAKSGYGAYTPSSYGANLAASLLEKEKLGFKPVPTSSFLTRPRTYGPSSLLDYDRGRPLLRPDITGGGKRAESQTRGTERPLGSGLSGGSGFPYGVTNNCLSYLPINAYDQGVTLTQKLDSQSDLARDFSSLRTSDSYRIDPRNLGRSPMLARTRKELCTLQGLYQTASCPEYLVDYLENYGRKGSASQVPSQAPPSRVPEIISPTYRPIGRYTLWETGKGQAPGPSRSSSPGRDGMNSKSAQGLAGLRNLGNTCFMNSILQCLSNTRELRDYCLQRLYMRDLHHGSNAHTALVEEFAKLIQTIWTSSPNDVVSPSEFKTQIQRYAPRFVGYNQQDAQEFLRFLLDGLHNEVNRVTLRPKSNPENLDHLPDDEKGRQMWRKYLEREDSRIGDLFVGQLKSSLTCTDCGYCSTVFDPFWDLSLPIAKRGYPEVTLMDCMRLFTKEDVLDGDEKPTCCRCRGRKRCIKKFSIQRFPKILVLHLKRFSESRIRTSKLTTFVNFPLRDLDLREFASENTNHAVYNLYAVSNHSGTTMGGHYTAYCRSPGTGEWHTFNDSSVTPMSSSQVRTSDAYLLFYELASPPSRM

[7] = biological target: T7, GST-fusion protein containing full-length IRF1 (UniProt P10914); experiment: as above
T7 sequence: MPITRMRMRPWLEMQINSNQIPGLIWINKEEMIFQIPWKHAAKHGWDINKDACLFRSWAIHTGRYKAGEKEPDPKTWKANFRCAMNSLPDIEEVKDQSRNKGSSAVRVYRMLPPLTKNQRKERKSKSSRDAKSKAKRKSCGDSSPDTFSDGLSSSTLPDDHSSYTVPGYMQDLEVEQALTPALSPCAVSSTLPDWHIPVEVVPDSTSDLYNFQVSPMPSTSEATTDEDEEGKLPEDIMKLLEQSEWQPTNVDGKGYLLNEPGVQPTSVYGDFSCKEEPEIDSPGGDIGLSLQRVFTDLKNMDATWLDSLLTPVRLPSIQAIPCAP

SFB-tagged VPRBP (human) = SFB-tagged VPRBP (human) (UniProt Q9Y4B6); experiment: co-IP; H1299 cells transfected with both constructs; whole cell extracts in BC100 buffer; SFB-tagged bait on streptavidin beads overnight at 4 °C; western blot
[8] = biological target: endogenous VPRBP (human (endogenous in H1299, A549, HEK293, MDA-MB-231, A375)) (UniProt Q9Y4B6); experiment: co-IP; endogenous proteins from H1299 cells; IP with a specific antibody or control IgG; western blot
[9] = biological target: endogenous VPRBP (human (endogenous in H1299, A549, HEK293, MDA-MB-231, A375)) (UniProt Q9Y4B6); experiment: co-IP; endogenous proteins, A549 cells (Supplementary Fig. 4b, c)
[10] = biological target: endogenous VPRBP (human (endogenous in H1299, A549, HEK293, MDA-MB-231, A375)) (UniProt Q9Y4B6); experiment: co-IP; endogenous proteins, HEK293 cells (Supplementary Fig. 4b, c)

Molecule: Flag-tagged VPRBP (from UniProt Q9Y4B6 1-1507)
binding [4]: binds

Molecule: endogenous PD-L1 (from UniProt Q9NZQ7 19-290)
binding [5]: binds

B1: Flag-tagged IRF1 (protein, UniProt P10914 1-325)
chain: MPITRMRMRPWLEMQINSNQIPGLIWINKEEMIFQIPWKHAAKHGWDINKDACLFRSWAIHTGRYKAGEKEPDPKTWKANFRCAMNSLPDIEEVKDQSRNKGSSAVRVYRMLPPLTKNQRKERKSKSSRDAKSKAKRKSCGDSSPDTFSDGLSSSTLPDDHSSYTVPGYMQDLEVEQALTPALSPCAVSSTLPDWHIPVEVVPDSTSDLYNFQVSPMPSTSEATTDEDEEGKLPEDIMKLLEQSEWQPTNVDGKGYLLNEPGVQPTSVYGDFSCKEEPEIDSPGGDIGLSLQRVFTDLKNMDATWLDSLLTPVRLPSIQAIPCAP
binding (SFB-tagged VPRBP (human)): binds

Next, values leading:

binding (SFB-tagged-USP2 protein): binds
binding [1]: binds
binding [2]: binds
binding [3]: binds
Molecule: endogenous VPRBP (from UniProt Q9Y4B6 1-1507)

binding (SFB-tagged IRF1): binds
binding (FLAG-HA-tagged USP2): binds
Molecule: Myc-tagged VPRBP (from UniProt Q9Y4B6 1-1507)

binding [6]: binds
binding [7]: binds
Molecule: purified Flag-VPRBP (from UniProt Q9Y4B6 1-1507)

binding [8]: binds
binding [9]: binds
binding [10]: binds
B2: endogenous IRF1 (protein, UniProt P10914 1-325)
chain: MPITRMRMRPWLEMQINSNQIPGLIWINKEEMIFQIPWKHAAKHGWDINKDACLFRSWAIHTGRYKAGEKEPDPKTWKANFRCAMNSLPDIEEVKDQSRNKGSSAVRVYRMLPPLTKNQRKERKSKSSRDAKSKAKRKSCGDSSPDTFSDGLSSSTLPDDHSSYTVPGYMQDLEVEQALTPALSPCAVSSTLPDWHIPVEVVPDSTSDLYNFQVSPMPSTSEATTDEDEEGKLPEDIMKLLEQSEWQPTNVDGKGYLLNEPGVQPTSVYGDFSCKEEPEIDSPGGDIGLSLQRVFTDLKNMDATWLDSLLTPVRLPSIQAIPCAP
